PubChem BioAssay AID485298 (National Center for Advancing Translational Sciences (NCATS), 2010)
In all, about 320,000 compounds went through this assay and about 740 (0.23%) were called active. The shares of active, inactive and inconclusive entries below differ from those in the screen. The call rests on the fitted dose curve; in most records, active means well fitted activation curve with a large enough effect; inconclusive means small, poorly fitted or top-dose-only effect; inactive means no such curve, though single readings can be large or run the other way. A potency beside an inconclusive call is a rough fit, not a confirmed value.

Assay: qHTS Assay for Small Molecule Inhibitors of Mitochondrial Division or Activators of Mitochondrial Fusion; further: nearly all actives have a fitted effect of over 45% in size
Conditions: S. cerevisiae fusion-defective mutant growth rescue, CellTiterGlo 48 h; series mostly up to 46.1 µM
Procedure, shortened: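 Temperature-sensitive fusion-defective S. cerevisiae (e.g. fzo1-1, mgm1-5) were grown with compound in YPEG medium (3% ethanol, 3% glycerol) for 48 hours at 37C. Growth rescue was measured as viability by CellTiterGlo luminescence after 10 minutes at ambient.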
Potency means the concentration at half of the fitted maximal effect.

Structure (SMILES) | Potency
CCN(Cc1nc(-c2cccc(C)c2)no1)C(=O)c1ccc2c(c1)OCO2 | inconclusive: 35.5 µM [activator, single point]
Cc1ccccc1SC1CCN(Cc2nc(C3CC3)no2)CC1 | inconclusive: 11.2 µM [activator, partial curve]
COC(=O)COc1ccc2occ(C(C)=O)c2c1 | inconclusive: 10 µM [activator, partial curve]
Cc1ccc(CNC(=O)C2CC(c3cc(C(F)(F)F)cc(C(F)(F)F)c3)=NO2)o1 (stereo unspecified) | inconclusive: 35.5 µM [activator, partial curve]
CCOC(=O)C(NC(=O)c1cccc(Cl)c1)(OCc1ccc(F)cc1)C(F)(F)F (stereo unspecified) | inconclusive: 12.6 µM [activator, partial curve]
COc1ccc(/C=N/Nc2nc(-c3cccnc3)nc3ccccc23)cc1OC | inactive
COc1ccccc1C(C(=O)NCc1ccc(F)cc1)N(C(=O)c1csnn1)C1CC1 (stereo unspecified) | inactive
CCC1CCCCN1C(=O)COc1c(Br)cc(Br)c2cccnc12 (stereo unspecified) | inconclusive: 31.6 µM [activator, single point]
c1ccc2c(c1)CCN(c1nc(CN3CCOCC3)nc3sc4c(c13)CCCC4)C2 | inconclusive: 31.6 µM [activator, single point]
O=C1C=C(N2CCOCC2)C2(CCCCC2)O1 | inactive
CCOc1ccccc1N1CCN(C(=O)c2cc(-c3cc(OC)ccc3OC)nc3ccccc23)CC1 | inactive
Cc1ccc(Nc2cc(C)nn2-c2nc(C)cc(C)n2)cc1 | inactive
O=C(Nc1cn(-c2ccccc2)nc1-c1ccccc1)c1ccccc1 | inconclusive: 8.91 µM [activator, partial curve]
CCN(CCCn1c(=S)[nH]c2ncccc2c1=O)c1ccccc1 | inactive
CC(C)CC1Nc2ncnc(N3CCN(c4ccccc4)CC3)c2N(Cc2ccc(Cl)cc2)C1=O (stereo unspecified) | inconclusive: 7.94 µM [activator, partial curve]
CCN(Cc1ccccc1)C(=O)C1CCN(Cc2ccc(SC)cc2)CC1 | inconclusive: 7.08 µM [activator, partial curve]
Cc1nc(C(=O)NNC(=O)c2ccc(Cl)cc2)cs1 | inactive
COc1ccccc1C1C([N+](=O)[O-])=CC([N+](=O)[O-])=CN1C (stereo unspecified) | inactive
Cc1ccccc1CSc1ccc(-c2ccc3c(c2)OCO3)nn1 | inactive
COC(=O)CCCC1=CC2=CC(=O)C(C)(OC(=O)c3cccs3)C(=O)C2=CN1C1CCCCC1 (stereo unspecified) | inactive
O=C(O)CCCCCN1C(=O)/C(=C\c2ccc(-c3ccc(Cl)cc3)o2)SC1=S | inconclusive: 5.62 µM [activator, single point]
Cn1c(=O)c2c(nc(N/N=C/c3ccc(OC(=O)c4ccco4)cc3)n2Cc2ccccc2)n(C)c1=O | inconclusive: 11.2 µM [activator, partial curve]
CC(C)N(Cc1nc(-c2ccc(Cl)cc2)no1)C(=O)/C=C/c1ccccc1 | inconclusive: 28.2 µM [activator, single point]
Oc1c(CN2CCc3ccccc3C2)cc(Cl)c2cccnc12 | inactive

Random excerpt: 2 compounds from above
Structure (SMILES) | Potency
Cc1ccc(Nc2cc(C)nn2-c2nc(C)cc(C)n2)cc1 | inactive
Cc1ccccc1SC1CCN(Cc2nc(C3CC3)no2)CC1 | inconclusive: 11.2 µM [activator, partial curve]

Taken from the results shown (2 entries):
Structure (SMILES) | Potency
Cc1ccccc1CSc1ccc(-c2ccc3c(c2)OCO3)nn1 | inactive
COC(=O)CCCC1=CC2=CC(=O)C(C)(OC(=O)c3cccs3)C(=O)C2=CN1C1CCCCC1 (stereo unspecified) | inactive

Remaining list, next part.

Structure (SMILES) | Potency
Cc1ccc(NC(=O)c2ccc(NC(=O)c3ccccc3)cc2)cc1C | inactive
CCS(=O)(=O)N1CCC(C(=O)Nc2cccc(F)c2)CC1 | inactive
CCCNC(=O)c1sc2c(c1C(=O)Nc1ccccn1)CCCC2 | inconclusive: 35.5 µM [activator, single point]
COC(=O)c1c(C)[nH]c(C(=O)C(C)OC(=O)c2cc(C)oc2C)c1C (stereo unspecified) | inconclusive: 5.01 µM [activator, partial curve]
O=C(c1cc[n+]([O-])cc1)N1CCCC(N2CCN(c3cccc(C(F)(F)F)c3)CC2)C1 (stereo unspecified) | inconclusive: 2.51 µM [activator, partial curve]
C=CCNC(=O)C(=O)NCCOc1ccccc1Cl | inactive
CCN(CC)S(=O)(=O)c1cc(NC(=O)COC(=O)c2c(C)noc2C)ccc1C | inactive
N/C(=N\OC(=O)c1ccc(F)cc1)c1cccc([N+](=O)[O-])c1 | inactive
CN(C)c1nc(=Nc2cccc(Cl)c2)ss1 | inconclusive: 12.6 µM [activator, single point]
CCCCCCSc1cc(-c2nc3cnccn3c2NCc2ccccc2)ccc1OC | inconclusive: 31.6 µM [activator, single point]
O=c1c2c(nc3c(-c4ccccc4)c[nH]n13)CCC2 | inactive
COc1cccc(C(c2c(NC(=O)c3ccco3)sc(C)c2C)N2CCOCC2)c1 (stereo unspecified) | inconclusive: 10 µM [activator, partial curve]
O=C(O)/C(=C\c1ccccc1OC(F)F)c1ccc(-c2ccccc2)cc1 | inconclusive: 10 µM [activator, partial curve]
CC(C)(C)n1nnnc1CN1CCN(C(c2ccccc2)c2ccccc2)CC1 | inconclusive: 35.5 µM [activator, single point]
CCc1c(C(=O)NCCc2cccc(C)c2)[nH]c(C)c1C(C)=O | inconclusive: 20 µM [activator, partial curve]
COc1cc2c(cc1NC(=O)CN(C)Cc1ccc(OC)c(OC)c1)oc1ccccc12 | active: 14.1 µM
CC(C)(C)c1ccccc1NC(=S)NC1CCCCC1 | inconclusive: 35.5 µM [activator, partial curve]
S=C(Nc1ccc(Oc2ccccc2)cc1)NC1CCCC1 | inconclusive: 22.4 µM [activator, single point]
COc1cc(OC)c(/C=C2/C(=O)Nc3ccccc32)c(OC)c1 | inconclusive: 20.6 µM [activator, single point]
Cn1c2ccccc2c2c(C(=O)N3CCN(c4ccccn4)CC3)cn(C3CCCC3)c(=O)c21 | inconclusive: 20 µM [activator, partial curve]
COc1ccc(-c2cc(C(F)(F)F)nc(S(C)(=O)=O)n2)cc1 | inactive
Cn1cc(C2=C(c3ccc(Cl)cc3Cl)C(=O)NC2=O)c2ccccc21 | inconclusive: 0.103 µM [activator, full curve, poor fit]
O=C(CCNC(=O)c1ccco1)Nc1ccc(OC(F)(F)F)cc1 | inactive
Cc1cccc(C)c1NS(=O)(=O)c1c(C(=O)N2CCCCC2)c(C)n(C)c1C | inconclusive: 12.6 µM [activator, partial curve, poor fit]

Structure (SMILES) | Potency
O=C(CSc1nc(-c2ccccc2)cs1)Nc1cccc([N+](=O)[O-])c1 | inconclusive: 11.2 µM [activator, partial curve]
Cc1ccc(C(=O)Nc2ccc(S(=O)(=O)O)c3cc(S(=O)(=O)O)cc(S(=O)(=O)O)c23)cc1NC(=O)c1cccc(NC(=O)Nc2cccc(C(=O)Nc3cc(C(=O)Nc4ccc(S(=O)(=O)O)c5cc(S(=O)(=O)O)cc(S(=O)(=O)O)c45)ccc3C)c2)c1 | active: 16.4 µM
Cc1cc(NC(=O)NCc2ccccc2)c(=O)n(Cc2ccc(F)cc2)c1 | inactive
CSc1ccc(C2=CC(=O)C[C@H](c3ccc(F)cc3)C2)cc1 | inconclusive: 14.1 µM [activator, single point]
Fc1ccc(-n2c(Cc3ccccc3)nnc2SCc2nc(-c3ccc(Cl)cc3)no2)cc1 | inconclusive: 35.5 µM [activator, single point]
CCn1c(SC/C=C/c2ccccc2)nnc1-c1cccs1 | inactive
Cc1ccc(SCCNC(=O)/C=C/c2ccc([N+](=O)[O-])cc2)cc1 | active: 15.8 µM
COC(=O)c1c(NC(=O)CN(c2ccccc2)S(C)(=O)=O)sc2c1CCCC2 | inconclusive: 35.5 µM [activator, single point]
COc1cc2nc(N3CCN(C(=O)OCc4ccccc4)C(C(=O)NC(C)(C)C)C3)nc(N)c2cc1OC (stereo unspecified) | inconclusive: 16.4 µM [activator, single point]
Cc1ccc(-c2nnc(-c3ccc(NC(=O)Cc4cccs4)cc3)o2)cc1 | inactive
O=C(Nc1nc(-c2cccs2)cs1)c1ccc(Cl)cc1 | inconclusive: 20 µM [activator, partial curve]
Cc1cccc(C(=O)OC(C)C(=O)Nc2ccc(S(=O)(=O)N3CCCC3)cc2)c1O (stereo unspecified) | inconclusive: 15.8 µM [activator, single point]
Cc1cc(=S)[nH]c2ccccc12 | inconclusive: 31.6 µM [activator, single point]
CCc1cc(C(N)=S)ccn1 | inconclusive: 15.8 µM [activator, single point]
O=C(NC(=S)N1CCCC(C(F)(F)F)C1)c1ccc(F)cc1 (stereo unspecified) | inactive
Cc1ccc(-c2nc3ccccc3[nH]2)cn1 | inactive
Cc1cccc(NC(=O)c2ccc(COc3cccc4ccccc34)o2)n1 | inconclusive: 25.1 µM [activator, single point]
CN(C)c1ccc(C(CNC(=O)c2ccccc2)c2c[nH]c3ccccc23)cc1 (stereo unspecified) | inconclusive: 31.6 µM [activator, single point]
CC(=O)N1c2ccc(S(=O)(=O)N(C)CC(=O)NC3CCCCC3C)cc2CC1C (stereo unspecified) | inconclusive: 2.51 µM [activator, partial curve]
COc1ccccc1-c1ccc(/C=C2/C=C(CC(C)C)OC2=O)o1 | inconclusive: 22.4 µM [activator, single point]
C=CCNS(=O)(=O)c1nc(C)c(Cl)c(C)c1C#N | inactive
CC(NC(=O)COC(=O)/C(=C/c1cccs1)c1cccs1)c1ccccc1 (stereo unspecified) | inconclusive: 20 µM [activator, single point]
CC(C)c1ccc(NC(=O)C2CCCN2S(=O)(=O)c2ccccc2F)cc1 (stereo unspecified) | inconclusive: 20 µM [activator, single point]
